# Experimental data: PubChem BioAssay AID504793 (Drosophila RNAi Screening Center, 2011)
# Aim: 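Whole-genome screen for parts of the DNA damage checkpoint at G2/M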 (primary screen)
# Cell system: Drosophila S2R+ cells
# Reagent: long dsRNA against Drosophila genes, about 0.25 µg dsRNA per well
# Duration: 4 days of dsRNA, then 4 hours of drug before read-out
# Challenge: doxorubicin 0.5 µM for 4 hours to cause double-strand breaks, in cells also given a low, harmless dose of dsRNA against nbs to sensitise the assay
# Detection: 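Mitotic index as the number of phospho-histone H3-positive cells in each well following doxorubicin, given as raw counts without normalisation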
# Direction: mitotic cells: higher = more cells in mitosis, weaker G2 arrest
# Hit rule: 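Genes are called active only when high mitotic counts were reproduced with independent dsRNAs and mitosis was checked for delay without damage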
# Meaning of the calls: active = confirmed in follow-up tests; inactive = not confirmed
# In all, the deposit lists about 23,000 reagents; this is a random part of those with a known target gene and a result. In the full data, 62 (0.27%) were called active. 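Calls come from follow-up tests whose scores are not deposited, so confirmed genes may have low counts here; counts are not normalised per plate.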 The raw values are shown without normalisation. Reagents against one gene are numbered here. Names joined by + are all predicted targets of the reagent.
The first 10 entries, to show the layout:
target gene,dsRNA no.,"mitotic cells, replicate 1",Outcome
NAAT1,1,9,inactive
NAAT1,2,7,inactive
CG8401,1,4,inactive
CG30148,1,4,inactive
bb8,1,10,inactive
Smyd4-1,1,2,inactive
Smyd4-1,2,9,inactive
Septin1,1,7,inactive
dah,1,1,inactive
CG17140 + CG17139,1,3,inactive

Results, from the start:
target gene,dsRNA no.,"mitotic cells, replicate 1",Outcome
NAAT1,1,9,inactive
NAAT1,2,7,inactive
CG8401,1,4,inactive
CG30148,1,4,inactive
bb8,1,10,inactive
Smyd4-1,1,2,inactive
Smyd4-1,2,9,inactive
Septin1,1,7,inactive
dah,1,1,inactive
CG17140 + CG17139,1,3,inactive
CG17140 + CG17139,2,6,inactive
Rcc1,1,4,inactive
Rcc1,2,3,inactive
Coq8,1,17,inactive
Eig71Ek,1,5,inactive
Jon99Ciii,1,9,inactive
CG9004,1,8,inactive
CG5359,1,9,inactive
Cpr,1,3,inactive
Cpr,2,3,inactive
CG40053 (retired record),1,13,inactive
CG40053 (retired record),2,2,inactive
CG40053 (retired record),3,2,inactive
Rbp1,1,8,inactive
Mec2,1,8,inactive
Mec2,2,9,inactive
CG5235,1,4,inactive
CG13488,1,4,inactive
CG14270,1,6,inactive
TTLL4A,1,6,inactive
TTLL4A,2,9,inactive
CycT,1,2,inactive
CycT,2,4,inactive
CycT,3,10,inactive
IP3K2,1,6,inactive
IP3K2,2,6,inactive
IP3K2,3,9,inactive
IP3K2,4,10,inactive
IP3K2,5,11,inactive
TwdlW,1,,inactive
TwdlW,2,10,inactive
Klp68D,1,8,inactive
Klp68D,2,7,inactive
CG10062,1,4,inactive
CG10062,2,7,inactive
CG10062,3,10,inactive
CG32523,1,3,inactive
CG15543,1,7,inactive
CG42570,1,2,inactive
CG34347,1,14,inactive
CG34347,2,10,inactive
CG34347,3,4,inactive
nudC,1,8,inactive
nudC,2,4,inactive
frac,1,5,inactive
frac,2,2,inactive
RyR,1,3,inactive
CG8661,1,8,inactive
CG8661,2,4,inactive
glec,1,9,inactive
glec,2,7,inactive
Ubc84D,1,4,inactive
Ubc84D,2,11,inactive
GXIVsPLA2,1,7,inactive
GXIVsPLA2,2,5,inactive
CG4367,1,5,inactive
CG32086,1,6,inactive
CG17896,1,9,inactive
CG17896,2,8,inactive
Septin2,1,6,inactive
CG32461,1,25,inactive
CG10337,1,5,inactive
Spc25,1,11,inactive
CG15483,1,4,inactive
CNT1,1,8,inactive
CNT1,2,10,inactive
ste24c + CG30461,1,2,inactive
ste24c + CG30461,2,6,inactive
CG9346,1,11,inactive
CG1371,1,5,inactive
shams,1,6,inactive
CG4678,1,14,inactive
CG4678,2,8,inactive
CG9394,1,3,inactive
flz,1,6,inactive
Cisd2,1,9,inactive
GstO3,1,5,inactive
CG7342,1,1,inactive
CG31559,1,6,inactive
CG31559,2,5,inactive
CG33263,1,4,inactive
Hsepi,1,5,inactive
Hsepi,2,8,inactive
CG8197,1,10,inactive
CG13928,1,3,inactive
CG9231,1,4,inactive
Best1,1,8,inactive
Best1,2,2,inactive
CG2082,1,7,inactive
CG2082,2,9,inactive
sub,1,6,inactive
Adck1,1,10,inactive
Map205,1,5,inactive
Map205,2,6,inactive
CG1791,1,9,inactive
CG1791,2,12,inactive
T3dh,1,5,inactive
CG10562,1,9,inactive
CG10562,2,4,inactive
Unc-76,1,10,inactive
Unc-76,2,12,inactive
Orc2,1,5,inactive
CG31948,1,2,inactive
CG34327,1,9,inactive
CG34327,2,6,inactive
CG34327,3,1,inactive
CG30284,1,9,inactive
Arfrp1,1,6,inactive
Scgalpha,1,4,inactive
Scgalpha,2,5,inactive
CG8329,1,5,inactive
CG8329,2,5,inactive
CG12865 (retired record),1,13,inactive
CG12865 (retired record),2,5,inactive
Inx2,1,3,inactive
Inx2,2,10,inactive
CG34284,1,14,inactive
CG12321,1,11,inactive
CG12321,2,4,inactive
cnn,1,9,inactive
cnn,2,10,inactive
CG30339,1,12,inactive
alpha-Spec,1,8,inactive
CG13560,1,4,inactive
CG13560,2,9,inactive
SmydA-5,1,6,inactive
SmydA-5,2,10,inactive
CngA,1,4,inactive
CngA,2,6,inactive
CngA,3,4,inactive
